Experimental data reported in PubChem BioAssay AID504834 (National Center for Advancing Translational Sciences (NCATS), 2011).
About 22,000 (6.9%) of roughly 320,000 compounds were called active. The inconclusive results got no clear call from the source; some entries with a clear call stand among them for comparison. Calls come from the whole dose curve; as a rule, active = well fitted inhibition curve with a large enough effect; inconclusive = small, poorly fitted or top-dose-only effect, or another doubt; inactive = no such curve, though single readings can be large or run the other way. A potency beside an inconclusive call is a rough fit, not a confirmed value.

Experiment: Primary qHTS for delayed death inhibitors of the malarial parasite plastid, 96 hour incubation
Details: P. falciparum luciferase reporter growth; series mostly up to 28.7 µM; activity change, negative = inhibition: at the top concentration
Procedure, shortened: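 96 h incubation, 37 C, 5% CO2, of luciferase-reporter P. falciparum-infected RBCs (2% hematocrit, 0.05% parasitemia final) with test compounds; endpoint luminescence.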
% is set by controls: 0 for no effect and ±100 for the full control effect; potency is the fitted concentration of half-maximal effect.

SMILES	Potency	activity change, negative = inhibition
COc1ccc(CCNC(=O)Cn2nc(C)c3c(C)n(-c4ccc(C)cc4)nc3c2=O)c(OC)c1	inconclusive: 5.22 µM [inhibitor, partial curve, poor fit]	–
Cc1c(Cl)cccc1NC(=O)Cn1cnc(S(=O)(=O)N2CCCC2)c1	active: 7.38 µM	–
O=C(CCN1C(=O)C2CCCCC2C1=O)Nc1nc(-c2ccc(F)c(F)c2)cs1 (stereo not given)	–	inactive: -13.5%
Cc1ccc(-n2nc3c(c2NC(=O)c2ccc4c(c2)OCO4)CSC3)c(C)c1	inconclusive: 0.185 µM [inhibitor, full curve, poor fit]	–
O=C(c1ccco1)N1CCN(c2ncnc3scc(-c4ccc(F)cc4)c23)CC1	inconclusive: 18.5 µM [inhibitor, single point]	–
O=C(N/N=C/c1ccc(O)c(O)c1)C1c2ccccc2Oc2ccccc21	inconclusive: 10.4 µM [inhibitor, single point]	–
O=C(CSc1nc2c(c(=O)[nH]1)CCC2)Nc1cccc(F)c1	inconclusive: 13.1 µM [inhibitor, single point]	–
Cc1cccc(N2CCN(C(=O)CSCc3c(C)noc3C)CC2)c1C	–	inactive: 62.2%
CCOC(=O)N1CCN(S(=O)(=O)c2cc([N+](=O)[O-])c(C)cc2C)CC1	–	inactive: 12%
COc1cc(OC)cc(-c2nnc(NC(=O)CCS(=O)(=O)c3ccc(C)cc3)o2)c1	inconclusive: 18.5 µM [inhibitor, single point]	–
CC(C)(C)C(=O)Nc1ccc(-c2nc3ccccc3c(=O)o2)cc1	–	inactive: 7.22%
CN(Cc1ccccc1)C(=O)c1ncn(Cc2ccccc2)c1C(=O)N(C)Cc1ccccc1	inconclusive: 5.22 µM [inhibitor, single point]	–
CCOCCn1c2ccccc2c2nc3ccccc3nc21	inconclusive: 10.4 µM [inhibitor, partial curve]	–
COc1cc2ncnc(NCc3ccccc3)c2cc1OC	inconclusive: 18.5 µM [inhibitor, single point]	–
O=C(CNC(=O)c1cccc(F)c1)N/N=C/c1cccc([N+](=O)[O-])c1	inconclusive: 6.57 µM [inhibitor, partial curve, poor fit]	–
COc1ccc(C(=O)Nc2ccc(NC(=O)c3cccc(F)c3)cn2)cc1	inconclusive: 6.57 µM [inhibitor, partial curve]	–
COc1ccc(C2C([N+](=O)[O-])=C(C)N(C)C(=O)N2C)cc1OC (stereo not given)	inconclusive: 8.28 µM [inhibitor, single point]	–
CC(=O)Oc1ccccc1C1C[C@]2(C)CC(=O)NC2N1C(C)=O (stereo not given in full)	inconclusive: 9.28 µM [inhibitor, partial curve, poor fit]	–
COC(=O)c1cn(NC(=O)CC2CCCCC2)c(=O)c2ccccc12	inconclusive: 2.62 µM [inhibitor, single point]	–
CCOC(=O)c1ccc(NC(=O)CSc2nnc(C3CC3)n2C)cc1	inconclusive: 11.7 µM [inhibitor, partial curve, poor fit]	–
COc1ccc(-n2c(SCC(=O)Nc3ncc(Cl)cc3Cl)nc3ccccc32)cc1	inconclusive: 5.86 µM [inhibitor, partial curve, poor fit]	–
CCCOc1ccc(C(C)=O)cc1CSc1nc(O)cc(=O)[nH]1	active: 0.928 µM	–
O=C(OCc1nnn(Cc2ccccc2)c1-c1c(COC(=O)c2ccccc2)nnn1Cc1ccccc1)c1ccccc1	active: 1.85 µM	–
COC(=O)c1cc(Oc2ccc(S(=O)(=O)N3CCOCC3)cc2[N+](=O)[O-])cc(C(=O)OC)c1	inconclusive: 6.57 µM [inhibitor, partial curve, poor fit]	–

SMILES	Potency	activity change, negative = inhibition
Cc1ccc(NC(=O)c2ccc(-n3cccn3)c([N+](=O)[O-])c2)cc1C	inconclusive: 0.165 µM [inhibitor, full curve, poor fit]	–
CCC12CN3CCN(CC(C3)/C1=N/NC(=O)c1ccncc1)C2	inconclusive: 0.415 µM [inhibitor, full curve, poor fit]	–
COC(=O)C1=C(C)NC=C([N+](=O)[O-])C1c1ccc(OC)cc1 (stereo not given)	inconclusive: 1.31 µM [inhibitor, partial curve, poor fit]	–
S=C(NCc1ccccn1)Nc1ccccc1	–	inactive: 65.7%
CCOCCCNC(=O)C1CCC(=O)N1CCc1ccccc1 (stereo not given)	inconclusive: 10.4 µM [inhibitor, single point]	–
Cc1cnc(NC(=O)CSc2nnc(C)s2)s1	–	inactive: -15.1%
COc1nc(N)nc(CC(=O)C2CC2)n1	inconclusive: 13.1 µM [inhibitor, partial curve]	–
CCn1c2ccccc2c2cc(C3N=C(N)Nc4nc5ccccc5n43)ccc21 (stereo not given)	inconclusive: 14.7 µM [inhibitor, partial curve]	–
CCOc1cccc2cc(C(=O)N3CC(C)OC(C)C3)c(=O)oc12 (stereo not given)	active: 6.57 µM	–
CC(C)N(Cc1nnc(-c2ccc(Cl)cc2)o1)C(=O)C1=COCCO1	–	inactive: -0.891%
COc1ccc(NS(=O)(=O)c2cc3c(cc2C)N(C)CCO3)c(OC)c1	inconclusive: 13.1 µM [inhibitor, partial curve, poor fit]	–
CC1Cc2ccccc2N1C(=O)CNc1ccccc1N1CCCCC1 (stereo not given)	active: 13.1 µM	–
COc1cc(C(=O)Nc2ccc(S(=O)(=O)Nc3cnc4ccccc4n3)cc2)cc(OC)c1OC	active: 11.7 µM	–
Cc1cccnc1CCNC(=O)c1ccc(OC2CCN(Cc3ccccn3)CC2)cc1	–	inactive: -3.72%
COc1cccc(CNC(=O)CCC2CCCN(Cc3cc4ccccc4o3)C2)c1 (stereo not given)	inconclusive: 20.8 µM [inhibitor, single point]	–
O=C(NC1CCCC1)C1CCCN1S(=O)(=O)c1cccc2cccnc12 (stereo not given)	–	inactive: -27.2%
CCCNC(=O)c1oc2ccc3c(c2c1C)C=CC(C)(C)O3	–	inactive: 42.3%
COc1cc2c(=O)n(CC3CCCO3)c(=O)n(CC(=O)Nc3ccccc3)c2cc1OC (stereo not given)	inconclusive: 1.04 µM [inhibitor, partial curve]	–
CN(C)C(C)(C)/C=C/C(O)(c1ccccc1)c1ccccc1	–	inactive: 3.1%
O=S(=O)(c1ccc(Cl)cc1)N1CCc2ccccc21	–	inactive: -15.8%
CCN(CC(=O)Nc1cccc(S(=O)(=O)N2CCCCC2)c1)Cc1ccccc1	inconclusive: 8.28 µM [inhibitor, partial curve]	–
Cn1nnnc1SCC(=O)Nc1nc2c(s1)CCCC2	–	inactive: 351%
Cc1noc(/C=C/c2ccco2)c1S(=O)(=O)N1CCC(C(=O)N2CCc3ccccc3C2)CC1	inconclusive: 18.5 µM [inhibitor, single point]	–
CC1(C)Cc2ccccc2-c2nc(-c3ccccc3)oc(=O)c21	inconclusive: 18.5 µM [inhibitor, single point]	–

Whole records, looked up by structure.
Cc1ccc(NC(=O)c2ccc(-n3cccn3)c([N+](=O)[O-])c2)cc1C as listed: Potency: inconclusive: 0.165 µM [inhibitor, full curve, poor fit]
CC(C)N(Cc1nnc(-c2ccc(Cl)cc2)o1)C(=O)C1=COCCO1 as listed: activity change, negative = inhibition: inactive: -0.891%

Remaining list, next part:

SMILES	Potency	activity change, negative = inhibition
CC(=O)Nc1sc(N/N=C\c2ccccc2Cl)nc1-c1cccs1	inconclusive: 14.7 µM [inhibitor, single point]	–
COc1ccc2ccccc2c1/C=N/NC(=O)c1ccccc1F	inconclusive: 18.5 µM [inhibitor, single point]	–
CCCCOc1ccccc1NC(=O)CSc1nnnn1C(C)(C)C	–	inactive: 7.46%
COc1ccc(-c2nnc(NC(=O)CSc3ccccc3)s2)cc1OC	inconclusive: 18.5 µM [inhibitor, single point]	–
CC(=O)c1ccc(S(=O)(=O)N2CCN(C(=O)CSC(=S)N3CCCC3)CC2)cc1	inconclusive: 8.28 µM [inhibitor, partial curve]	–
Cc1ccc(CN2CCN(Cc3cccn3-c3ccc(Cl)cn3)CC2CCO)o1 (stereo not given)	active: 11.7 µM	–
COc1ccc(C(=O)N2CCCC2)cc1	–	inactive: -8.4%
OCC1(Cc2ccccc2)CCCN(Cc2cn[nH]c2-c2ccccc2)C1 (stereo not given)	inconclusive: 16.5 µM [inhibitor, single point]	–
COc1nc(-c2ccncc2)nc2ccccc12	inconclusive: 0.294 µM [inhibitor, full curve]	–
FC(F)(F)c1ccc(C2[C@H]3CN(CC4CCCCC4)[C@H](c4ccccc4)C34CC2(c2cccnc2)C4)cc1 (stereo not given in full)	active: 3.29 µM	–
C=CCOc1ccc2c(c1)C(=NO)c1cc(OCC=C)ccc1-2	inconclusive: 18.5 µM [inhibitor, single point]	–
Cc1ccc(S(=O)(=O)N2CCN(Cc3ccco3)CC2)c(C)c1	inconclusive: 16.5 µM [inhibitor, partial curve, poor fit]	–
Cc1ccc(-c2nnn(CC(=O)N(c3ccccc3F)C(C(=O)NC3CCCC3)c3ccco3)n2)o1 (stereo not given)	inconclusive: 18.5 µM [inhibitor, single point]	–
COc1ccc(CN(C)C(=O)CC(c2ccccc2)c2ccccc2)cc1	inconclusive: 11.7 µM [inhibitor, single point]	–
CCOc1ccc(CNCc2ccccc2Cl)cc1	–	inactive: -21%
CC(C)C(=O)Nc1c2c(nn1-c1ccc(F)cc1)CSC2	–	inactive: 0%
COc1ccc(-c2noc(CN(C)S(=O)(=O)c3ccc(Cl)cc3)n2)cc1OC	inconclusive: 14.7 µM [inhibitor, partial curve, poor fit]	–
CC(C)Cc1nnc(NC(=O)c2cccc(S(=O)(=O)N3CCOCC3)c2)s1	inconclusive: 10.4 µM [inhibitor, single point]	–
Cc1ccc(Nc2nc(-c3c(C)nc4ccccn34)cs2)cc1	active: 10.4 µM	–
CCCCc1cc(=O)oc2cc(C)cc(OC(C)C(=O)NCc3cccnc3)c12 (stereo not given)	active: 16.5 µM	–
Cc1ccc(/C=N/NC(=O)c2sccc2OCc2ccc(F)cc2)cc1	inconclusive: 10.4 µM [inhibitor, single point]	–
COCCCNC(=O)CCn1c(=O)c2ccccc2n(CC(=O)Nc2ccccc2C)c1=O	–	inactive: 8.05%
